Source: the supplement of paper PMC7666118
The other results are listed elsewhere or left out.

By UniProt entry, the sequences of proteins in these tests, tags left out. Where a name states a change or a piece, a line headed by the entry shows the natural chain unless it says otherwise.
UniProt B4E0S5, whole entry, looked up: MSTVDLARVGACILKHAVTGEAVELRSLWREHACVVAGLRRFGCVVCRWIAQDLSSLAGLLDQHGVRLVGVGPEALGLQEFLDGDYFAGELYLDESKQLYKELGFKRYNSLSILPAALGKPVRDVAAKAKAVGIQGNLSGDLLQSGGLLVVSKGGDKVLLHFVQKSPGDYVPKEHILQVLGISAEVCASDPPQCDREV
UniProt P36543, whole entry: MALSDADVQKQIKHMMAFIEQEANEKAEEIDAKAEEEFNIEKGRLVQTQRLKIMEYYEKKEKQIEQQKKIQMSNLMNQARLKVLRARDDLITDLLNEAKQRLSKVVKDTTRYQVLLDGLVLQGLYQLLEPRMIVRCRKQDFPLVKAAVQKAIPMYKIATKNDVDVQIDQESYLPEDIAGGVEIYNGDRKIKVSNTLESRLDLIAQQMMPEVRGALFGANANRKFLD
UniProt P48634: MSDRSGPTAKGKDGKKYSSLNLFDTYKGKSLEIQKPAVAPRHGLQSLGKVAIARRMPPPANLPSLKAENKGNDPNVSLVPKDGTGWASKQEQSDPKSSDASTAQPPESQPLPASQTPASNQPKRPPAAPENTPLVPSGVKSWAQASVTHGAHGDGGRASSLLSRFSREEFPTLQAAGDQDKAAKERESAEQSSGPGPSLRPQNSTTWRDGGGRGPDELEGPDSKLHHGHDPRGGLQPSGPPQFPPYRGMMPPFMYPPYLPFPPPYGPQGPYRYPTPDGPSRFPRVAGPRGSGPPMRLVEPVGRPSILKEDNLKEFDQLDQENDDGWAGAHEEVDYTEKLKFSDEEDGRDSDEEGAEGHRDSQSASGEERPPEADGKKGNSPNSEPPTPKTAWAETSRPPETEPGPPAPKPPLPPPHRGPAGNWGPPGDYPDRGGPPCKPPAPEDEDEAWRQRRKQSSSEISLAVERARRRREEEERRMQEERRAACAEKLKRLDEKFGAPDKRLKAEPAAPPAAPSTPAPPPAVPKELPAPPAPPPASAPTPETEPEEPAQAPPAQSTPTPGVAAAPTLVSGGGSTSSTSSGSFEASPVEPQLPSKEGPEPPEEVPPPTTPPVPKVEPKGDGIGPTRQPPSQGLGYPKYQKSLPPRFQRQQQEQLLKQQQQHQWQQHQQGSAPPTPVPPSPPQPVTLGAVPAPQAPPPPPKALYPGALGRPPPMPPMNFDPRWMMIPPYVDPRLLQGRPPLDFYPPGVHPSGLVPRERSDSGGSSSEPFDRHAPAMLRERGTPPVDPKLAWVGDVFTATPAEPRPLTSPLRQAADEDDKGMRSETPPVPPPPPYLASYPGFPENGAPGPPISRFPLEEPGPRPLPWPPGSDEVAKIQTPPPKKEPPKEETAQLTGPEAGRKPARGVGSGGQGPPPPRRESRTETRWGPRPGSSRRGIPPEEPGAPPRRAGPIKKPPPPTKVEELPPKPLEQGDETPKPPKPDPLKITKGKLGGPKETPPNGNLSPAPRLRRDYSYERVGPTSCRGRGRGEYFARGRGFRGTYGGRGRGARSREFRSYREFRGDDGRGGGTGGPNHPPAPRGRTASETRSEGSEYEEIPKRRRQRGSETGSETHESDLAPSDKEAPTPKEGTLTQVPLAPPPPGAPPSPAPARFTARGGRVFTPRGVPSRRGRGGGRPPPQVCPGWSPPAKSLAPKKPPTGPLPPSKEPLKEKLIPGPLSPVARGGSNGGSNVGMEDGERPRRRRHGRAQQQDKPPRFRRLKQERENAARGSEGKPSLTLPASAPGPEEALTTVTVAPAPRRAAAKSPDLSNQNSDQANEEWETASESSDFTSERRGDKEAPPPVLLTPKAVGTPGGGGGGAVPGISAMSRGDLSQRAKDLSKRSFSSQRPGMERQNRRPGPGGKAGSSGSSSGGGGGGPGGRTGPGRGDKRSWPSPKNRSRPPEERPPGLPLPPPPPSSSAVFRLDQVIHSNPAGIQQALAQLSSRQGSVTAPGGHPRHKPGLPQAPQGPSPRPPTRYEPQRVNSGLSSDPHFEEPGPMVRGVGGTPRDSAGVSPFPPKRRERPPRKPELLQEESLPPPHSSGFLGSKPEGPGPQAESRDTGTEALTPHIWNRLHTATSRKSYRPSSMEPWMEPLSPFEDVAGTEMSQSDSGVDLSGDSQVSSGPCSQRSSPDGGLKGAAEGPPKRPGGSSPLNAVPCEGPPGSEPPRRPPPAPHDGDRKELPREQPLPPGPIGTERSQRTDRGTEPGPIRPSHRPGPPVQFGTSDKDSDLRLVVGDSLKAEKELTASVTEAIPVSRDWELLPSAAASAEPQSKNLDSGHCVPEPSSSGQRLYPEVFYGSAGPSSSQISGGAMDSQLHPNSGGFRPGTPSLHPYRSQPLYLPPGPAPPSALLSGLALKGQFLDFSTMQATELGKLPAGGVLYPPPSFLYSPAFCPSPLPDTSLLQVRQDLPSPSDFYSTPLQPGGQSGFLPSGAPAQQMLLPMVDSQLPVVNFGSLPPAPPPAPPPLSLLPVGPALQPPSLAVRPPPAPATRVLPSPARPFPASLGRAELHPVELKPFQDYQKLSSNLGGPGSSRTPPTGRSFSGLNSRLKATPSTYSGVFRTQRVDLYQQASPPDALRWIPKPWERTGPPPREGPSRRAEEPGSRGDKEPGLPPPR
UniProt O43683: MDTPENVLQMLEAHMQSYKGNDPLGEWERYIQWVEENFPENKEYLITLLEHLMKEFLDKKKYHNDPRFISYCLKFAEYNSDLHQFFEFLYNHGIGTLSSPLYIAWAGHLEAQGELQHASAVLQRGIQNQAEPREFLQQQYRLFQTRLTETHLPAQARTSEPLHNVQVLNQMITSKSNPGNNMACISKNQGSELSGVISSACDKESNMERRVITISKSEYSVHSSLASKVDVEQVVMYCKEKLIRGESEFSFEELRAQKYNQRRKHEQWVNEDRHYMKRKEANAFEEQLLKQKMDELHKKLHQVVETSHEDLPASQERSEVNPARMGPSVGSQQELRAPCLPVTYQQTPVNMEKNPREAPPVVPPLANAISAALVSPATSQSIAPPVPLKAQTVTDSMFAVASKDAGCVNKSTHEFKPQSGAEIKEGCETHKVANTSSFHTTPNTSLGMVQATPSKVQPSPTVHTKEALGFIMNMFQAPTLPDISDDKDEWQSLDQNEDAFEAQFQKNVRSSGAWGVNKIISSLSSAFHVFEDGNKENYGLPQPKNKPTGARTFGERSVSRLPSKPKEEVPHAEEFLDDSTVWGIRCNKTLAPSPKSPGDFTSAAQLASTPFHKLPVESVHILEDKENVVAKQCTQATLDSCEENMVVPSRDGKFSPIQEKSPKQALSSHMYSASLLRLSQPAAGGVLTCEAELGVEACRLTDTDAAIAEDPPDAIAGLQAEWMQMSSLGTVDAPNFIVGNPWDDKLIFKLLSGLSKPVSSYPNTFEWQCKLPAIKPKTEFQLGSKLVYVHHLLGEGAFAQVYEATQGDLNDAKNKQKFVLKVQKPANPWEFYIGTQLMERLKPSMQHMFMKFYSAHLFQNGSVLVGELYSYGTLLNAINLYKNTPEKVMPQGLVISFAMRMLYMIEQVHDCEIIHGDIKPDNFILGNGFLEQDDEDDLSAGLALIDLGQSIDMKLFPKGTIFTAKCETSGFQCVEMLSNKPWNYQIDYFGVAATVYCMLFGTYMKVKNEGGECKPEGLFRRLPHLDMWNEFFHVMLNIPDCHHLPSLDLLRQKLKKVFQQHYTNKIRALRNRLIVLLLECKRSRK
UniProt Q9BQ49: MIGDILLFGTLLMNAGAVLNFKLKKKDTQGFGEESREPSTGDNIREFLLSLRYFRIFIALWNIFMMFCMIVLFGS
UniProt Q9NRL2: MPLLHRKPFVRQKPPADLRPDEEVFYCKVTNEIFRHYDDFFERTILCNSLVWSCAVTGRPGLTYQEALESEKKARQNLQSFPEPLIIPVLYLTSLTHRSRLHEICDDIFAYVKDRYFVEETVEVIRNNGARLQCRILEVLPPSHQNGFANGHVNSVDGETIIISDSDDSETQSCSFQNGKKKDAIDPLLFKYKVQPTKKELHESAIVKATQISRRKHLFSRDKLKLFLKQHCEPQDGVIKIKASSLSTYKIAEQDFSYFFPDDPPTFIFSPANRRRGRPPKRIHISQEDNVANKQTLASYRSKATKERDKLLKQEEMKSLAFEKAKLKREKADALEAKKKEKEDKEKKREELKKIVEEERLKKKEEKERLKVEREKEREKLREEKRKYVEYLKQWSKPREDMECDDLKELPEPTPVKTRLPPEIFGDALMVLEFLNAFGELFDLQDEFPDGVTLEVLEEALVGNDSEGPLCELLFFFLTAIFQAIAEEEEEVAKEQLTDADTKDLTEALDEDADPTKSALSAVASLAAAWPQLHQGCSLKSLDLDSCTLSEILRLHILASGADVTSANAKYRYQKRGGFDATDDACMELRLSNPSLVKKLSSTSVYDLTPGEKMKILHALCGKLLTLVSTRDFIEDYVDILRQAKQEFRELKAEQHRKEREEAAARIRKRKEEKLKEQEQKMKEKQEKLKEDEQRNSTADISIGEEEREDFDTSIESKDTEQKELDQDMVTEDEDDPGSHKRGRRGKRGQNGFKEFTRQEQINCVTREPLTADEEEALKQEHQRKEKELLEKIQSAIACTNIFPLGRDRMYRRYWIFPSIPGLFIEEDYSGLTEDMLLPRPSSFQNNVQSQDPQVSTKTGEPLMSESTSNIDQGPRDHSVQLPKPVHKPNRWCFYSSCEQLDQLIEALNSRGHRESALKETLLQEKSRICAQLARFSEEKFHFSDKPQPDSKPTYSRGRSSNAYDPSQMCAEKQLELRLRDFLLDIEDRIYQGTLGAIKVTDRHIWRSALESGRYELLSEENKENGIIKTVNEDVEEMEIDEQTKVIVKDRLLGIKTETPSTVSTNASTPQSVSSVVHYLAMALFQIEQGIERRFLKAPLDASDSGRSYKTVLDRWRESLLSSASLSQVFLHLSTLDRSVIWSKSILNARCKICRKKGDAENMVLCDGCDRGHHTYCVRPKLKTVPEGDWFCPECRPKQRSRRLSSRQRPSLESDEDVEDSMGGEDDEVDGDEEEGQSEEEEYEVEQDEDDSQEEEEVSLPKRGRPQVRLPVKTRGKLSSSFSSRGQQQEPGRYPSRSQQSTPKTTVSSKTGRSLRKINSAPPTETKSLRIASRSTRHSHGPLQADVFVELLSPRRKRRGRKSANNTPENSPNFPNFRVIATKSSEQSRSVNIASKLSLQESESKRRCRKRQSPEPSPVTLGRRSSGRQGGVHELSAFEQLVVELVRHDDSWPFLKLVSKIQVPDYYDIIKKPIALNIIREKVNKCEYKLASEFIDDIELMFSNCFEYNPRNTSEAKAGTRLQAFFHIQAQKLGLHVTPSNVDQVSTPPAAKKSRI
UniProt P56378: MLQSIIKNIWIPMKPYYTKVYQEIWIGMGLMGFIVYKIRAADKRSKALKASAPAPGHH
UniProt P56385: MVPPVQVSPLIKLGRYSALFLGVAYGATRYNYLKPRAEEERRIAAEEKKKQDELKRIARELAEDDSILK
UniProt O75787, whole entry: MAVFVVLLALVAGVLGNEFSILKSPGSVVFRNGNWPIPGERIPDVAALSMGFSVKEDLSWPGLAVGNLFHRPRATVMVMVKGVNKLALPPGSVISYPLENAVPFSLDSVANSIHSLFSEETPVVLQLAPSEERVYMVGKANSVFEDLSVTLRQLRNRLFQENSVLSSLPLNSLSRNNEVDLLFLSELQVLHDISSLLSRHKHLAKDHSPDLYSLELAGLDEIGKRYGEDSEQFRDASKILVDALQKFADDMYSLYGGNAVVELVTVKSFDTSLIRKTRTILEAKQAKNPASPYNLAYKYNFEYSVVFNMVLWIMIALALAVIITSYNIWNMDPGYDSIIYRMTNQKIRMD
UniProt Q9Y224: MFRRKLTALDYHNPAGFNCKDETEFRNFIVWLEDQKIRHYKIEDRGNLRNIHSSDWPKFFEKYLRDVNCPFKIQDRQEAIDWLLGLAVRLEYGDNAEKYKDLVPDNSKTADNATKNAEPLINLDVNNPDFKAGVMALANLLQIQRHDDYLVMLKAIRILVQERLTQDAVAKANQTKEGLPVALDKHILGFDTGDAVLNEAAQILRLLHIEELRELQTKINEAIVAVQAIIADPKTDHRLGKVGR
UniProt Q9UFG5: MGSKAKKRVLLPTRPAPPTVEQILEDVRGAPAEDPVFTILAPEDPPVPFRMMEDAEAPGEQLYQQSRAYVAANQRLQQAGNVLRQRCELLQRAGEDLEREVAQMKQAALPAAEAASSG
UniProt Q9NY97: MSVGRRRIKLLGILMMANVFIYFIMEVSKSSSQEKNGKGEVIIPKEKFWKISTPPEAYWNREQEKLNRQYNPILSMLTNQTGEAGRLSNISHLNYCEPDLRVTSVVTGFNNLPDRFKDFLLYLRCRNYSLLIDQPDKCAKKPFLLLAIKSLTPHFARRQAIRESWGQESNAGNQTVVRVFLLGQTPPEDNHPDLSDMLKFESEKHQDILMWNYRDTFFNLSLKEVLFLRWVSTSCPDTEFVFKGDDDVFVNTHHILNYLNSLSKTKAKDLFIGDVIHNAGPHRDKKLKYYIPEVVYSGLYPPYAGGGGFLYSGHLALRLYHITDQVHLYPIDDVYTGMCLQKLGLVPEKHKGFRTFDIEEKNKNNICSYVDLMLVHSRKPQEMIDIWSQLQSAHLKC

These targets were tested with COc1ccc(Cn2ccc3cc(C)c(C(=O)NO)cc32)cc1 (assay: dose-dependent thermal stabilisation call (2D-TPP, DLPTP, 10% FDR) (binary (1 = stabilised)); higher = stabilised by the compound). Settings: system: HL-60 intact cells; concentration range 0.04-10 µM.
Procedure: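 2D thermal proteome profiling in intact HL-60 cells treated with BRD-3811 (0, 0.04, 0.29, 2, 10 uM) for 90 min at 37 C, then heated 3 min at one of 12 temperatures (42-63.9 C). Soluble protein was quantified by TMT10 MS. The value is the DLPTP call of the paper: dose-dependent thermal stabilisation over all temperatures at 10% FDR (F-test of a dose-response against a flat model); one experiment, one call per tested protein.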

Row | Target | dose-dependent thermal stabilisation call
1 | UniProt B4E0S5_HUMAN | inactive: 0
2 | ATP13A2 (UniProt Q9NQ11) | inactive: 0
3 | ATP6V1E1 (UniProt P36543) | inactive: 0
4 | AZI1 (UniProt Q9UPN4) | inactive: 0
5 | BLMH (UniProt Q13867) | inactive: 0
6 | BEND3 (UniProt Q5T5X7) | inactive: 0
7 | BRD3 (UniProt Q15059) | inactive: 0
8 | C10ORF125 (UniProt A2VDF0) | inactive: 0
9 | AURKA (UniProt O14965) | inactive: 0
10 | BAT2 (UniProt P48634) | inactive: 0
11 | BUB1 (UniProt O43683) | inactive: 0
12 | AUH (UniProt Q13825) | inactive: 0
13 | C10ORF137 (UniProt Q3B7T1) | inactive: 0
14 | C13ORF3 (UniProt Q8IX90) | inactive: 0
15 | C18ORF55 (UniProt Q9BVV7) | inactive: 0
16 | BAT1 | inactive: 0
17 | UniProt B4E3W1_HUMAN | inactive: 0
18 | ATP2B1 (UniProt P20020) | inactive: 0
19 | BAT5 (UniProt O95870) | inactive: 0
20 | C19ORF42 (UniProt Q9BQ49) | inactive: 0

Laid out differently: entries from further up
BEND3 (UniProt Q5T5X7)
  dose-dependent thermal stabilisation call: inactive: 0
C10ORF137 (UniProt Q3B7T1)
  dose-dependent thermal stabilisation call: inactive: 0

Next part.

Row | Target | dose-dependent thermal stabilisation call
21 | BAZ1A (UniProt Q9NRL2) | inactive: 0
22 | C11ORF57 (UniProt Q6ZUT1) | inactive: 0
23 | C14ORF2 (UniProt P56378) | inactive: 0
24 | BLOC1S3 (UniProt Q6QNY0) | inactive: 0
25 | UniProt B4DLE8_HUMAN | inactive: 0
26 | ATP5I (UniProt P56385) | inactive: 0
27 | ATP6AP2 (UniProt O75787) | inactive: 0
28 | ATP6V0A1 (UniProt Q93050) | inactive: 0
29 | C12ORF44 (UniProt Q9BSB4) | inactive: 0
30 | BCS1L (UniProt Q9Y276) | inactive: 0
31 | C19ORF46 (UniProt Q8N205) | inactive: 0
32 | C12ORF45 (UniProt Q8N5I9) | inactive: 0
33 | BCL2L13 (UniProt Q9BXK5) | inactive: 0
34 | C14ORF166 (UniProt Q9Y224) | inactive: 0
35 | C19ORF25 (UniProt Q9UFG5) | inactive: 0
36 | B3GNT2 (UniProt Q9NY97) | inactive: 0
37 | C14ORF149 (UniProt Q96EM0) | inactive: 0
38 | C19ORF53 (UniProt Q9UNZ5) | inactive: 0
39 | AVL9 (UniProt Q8NBF6) | inactive: 0
40 | BPNT1 (UniProt O95861) | inactive: 0
